Reference: publication PMC10017700, “The SMARCA4^R1157W mutation facilitates chromatin remodeling and confers PRMT1/SMARCA4 inhibitors sensitivity in colorectal cancer” (NPJ Precision Oncology, 2023)
Results are given in words; binding and its absence hold for the method and conditions named. Binding seen in cells or lysates may run through a third protein. Some results given as binding are weak or reduced against the parent protein; the word gives no strength.

Protein sequences, listed by entry. Tags and fused reporters are not part of them. Lines headed by an entry give the natural chain unless they say otherwise; changes in a name come on top.
UniProt P51532: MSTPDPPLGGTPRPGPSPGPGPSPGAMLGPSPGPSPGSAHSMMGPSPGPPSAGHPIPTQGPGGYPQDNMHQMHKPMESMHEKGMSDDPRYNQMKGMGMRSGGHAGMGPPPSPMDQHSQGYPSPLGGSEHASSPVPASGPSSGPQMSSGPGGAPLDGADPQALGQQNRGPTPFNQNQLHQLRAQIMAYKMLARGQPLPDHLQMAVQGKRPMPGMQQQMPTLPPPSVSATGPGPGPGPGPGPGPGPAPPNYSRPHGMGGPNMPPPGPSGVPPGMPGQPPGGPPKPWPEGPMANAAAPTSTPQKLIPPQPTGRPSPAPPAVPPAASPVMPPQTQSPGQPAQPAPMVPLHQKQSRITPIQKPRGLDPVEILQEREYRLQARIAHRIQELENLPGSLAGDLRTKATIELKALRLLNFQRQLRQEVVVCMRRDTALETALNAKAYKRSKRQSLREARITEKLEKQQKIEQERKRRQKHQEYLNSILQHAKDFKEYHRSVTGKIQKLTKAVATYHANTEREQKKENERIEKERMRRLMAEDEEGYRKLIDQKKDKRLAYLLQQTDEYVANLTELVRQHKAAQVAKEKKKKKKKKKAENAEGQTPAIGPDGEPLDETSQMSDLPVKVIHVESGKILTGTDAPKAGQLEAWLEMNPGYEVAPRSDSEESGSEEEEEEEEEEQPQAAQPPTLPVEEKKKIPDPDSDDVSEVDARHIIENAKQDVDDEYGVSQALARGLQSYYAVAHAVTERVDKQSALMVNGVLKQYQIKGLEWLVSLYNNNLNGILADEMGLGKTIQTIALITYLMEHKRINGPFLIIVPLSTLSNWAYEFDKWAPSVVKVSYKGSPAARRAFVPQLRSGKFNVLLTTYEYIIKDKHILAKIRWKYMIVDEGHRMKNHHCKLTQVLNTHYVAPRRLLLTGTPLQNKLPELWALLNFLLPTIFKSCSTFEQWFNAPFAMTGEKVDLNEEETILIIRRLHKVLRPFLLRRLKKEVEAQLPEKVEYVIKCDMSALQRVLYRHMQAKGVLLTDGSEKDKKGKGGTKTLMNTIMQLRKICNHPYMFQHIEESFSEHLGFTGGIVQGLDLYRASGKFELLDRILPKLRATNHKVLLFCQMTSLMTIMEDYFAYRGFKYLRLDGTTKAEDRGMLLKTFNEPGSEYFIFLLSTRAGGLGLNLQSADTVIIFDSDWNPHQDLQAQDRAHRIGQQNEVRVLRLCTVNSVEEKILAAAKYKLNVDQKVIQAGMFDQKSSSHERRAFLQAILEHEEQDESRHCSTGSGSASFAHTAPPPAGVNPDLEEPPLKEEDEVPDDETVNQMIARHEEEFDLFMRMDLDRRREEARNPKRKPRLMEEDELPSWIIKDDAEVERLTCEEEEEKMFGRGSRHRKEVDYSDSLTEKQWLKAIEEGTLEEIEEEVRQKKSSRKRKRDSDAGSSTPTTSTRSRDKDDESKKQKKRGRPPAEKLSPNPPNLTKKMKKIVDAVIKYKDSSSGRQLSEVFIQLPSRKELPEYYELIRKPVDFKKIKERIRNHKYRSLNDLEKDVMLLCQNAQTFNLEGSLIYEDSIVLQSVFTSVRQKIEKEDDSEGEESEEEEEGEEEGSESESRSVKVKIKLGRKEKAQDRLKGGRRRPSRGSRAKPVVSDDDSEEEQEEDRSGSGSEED
UniProt Q12824: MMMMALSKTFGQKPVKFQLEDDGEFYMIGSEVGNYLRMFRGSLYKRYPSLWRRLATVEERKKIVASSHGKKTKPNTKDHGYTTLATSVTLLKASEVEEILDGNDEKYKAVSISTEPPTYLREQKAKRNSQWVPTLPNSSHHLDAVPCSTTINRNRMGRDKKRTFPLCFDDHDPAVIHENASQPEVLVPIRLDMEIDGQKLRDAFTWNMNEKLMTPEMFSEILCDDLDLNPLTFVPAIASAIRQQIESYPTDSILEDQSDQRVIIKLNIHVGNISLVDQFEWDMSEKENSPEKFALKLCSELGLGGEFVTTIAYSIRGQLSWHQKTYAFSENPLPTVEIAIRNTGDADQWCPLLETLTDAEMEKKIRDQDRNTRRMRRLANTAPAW
UniProt Q969G3: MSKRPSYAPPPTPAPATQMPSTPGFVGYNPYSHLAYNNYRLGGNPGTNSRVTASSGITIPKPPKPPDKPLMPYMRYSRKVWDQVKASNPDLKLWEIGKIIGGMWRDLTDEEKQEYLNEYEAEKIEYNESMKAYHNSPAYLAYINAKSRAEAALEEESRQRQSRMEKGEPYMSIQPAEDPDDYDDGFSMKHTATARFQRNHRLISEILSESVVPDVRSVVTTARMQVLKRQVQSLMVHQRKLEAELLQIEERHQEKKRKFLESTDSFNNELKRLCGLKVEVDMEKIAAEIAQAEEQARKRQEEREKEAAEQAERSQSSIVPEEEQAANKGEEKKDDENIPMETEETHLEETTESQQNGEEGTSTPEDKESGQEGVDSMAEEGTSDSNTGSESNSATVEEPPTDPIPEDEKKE
UniProt Q9H8M2: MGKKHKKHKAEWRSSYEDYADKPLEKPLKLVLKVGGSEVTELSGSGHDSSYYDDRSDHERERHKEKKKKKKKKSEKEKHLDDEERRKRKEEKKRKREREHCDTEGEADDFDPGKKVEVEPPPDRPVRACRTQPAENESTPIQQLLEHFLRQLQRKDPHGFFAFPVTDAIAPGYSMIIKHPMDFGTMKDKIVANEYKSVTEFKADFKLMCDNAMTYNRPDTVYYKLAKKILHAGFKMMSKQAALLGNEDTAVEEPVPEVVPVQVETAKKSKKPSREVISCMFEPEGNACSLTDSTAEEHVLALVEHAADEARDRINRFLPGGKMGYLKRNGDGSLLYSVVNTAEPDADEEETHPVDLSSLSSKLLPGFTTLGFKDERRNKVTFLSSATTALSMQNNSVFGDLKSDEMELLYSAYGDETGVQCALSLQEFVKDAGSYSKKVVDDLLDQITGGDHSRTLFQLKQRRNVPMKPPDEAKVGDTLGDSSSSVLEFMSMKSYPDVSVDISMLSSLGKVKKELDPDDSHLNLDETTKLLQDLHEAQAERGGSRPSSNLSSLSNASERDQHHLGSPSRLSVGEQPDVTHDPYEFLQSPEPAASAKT

Legend:
[1] = target: Flag-SMARCA4 full-length, wild-type (human) (UniProt P51532); test: co-IP; lysates of HCT116 cells transfected with SMARCA4-WT or SMARCA4-R1157W plasmids; anti-SMARCA4 antibody for the immunoprecipitation, immunoblot for the subunits
[2] = target: Flag-SMARCA4 full-length, R1157W mutant (human) (UniProt P51532); test: as above

Q: Which binding [1] does the source give for SMARCB1 (from UniProt Q12824 1-385) here?
A: binds

Q: And the binding [2]?
A: binds

Q: Which results are given for SMARCE1 (from UniProt Q969G3 1-411)?
A: binding [1]: binds; binding [2]: binds

Q: How did the binding [1] turn out when BRD9 (from UniProt Q9H8M2 1-597) was run?
A: binds

Q: What about the binding [2] of the same substance?
A: binds
